Data on one molecule can be found in paper doi:10.1101/2021.06.17.448790.

This assay concerns the target EphA1-P460L (Alzheimer's disease-associated P460L variant of EphA1), Myc-Flag-tagged (human) (UniProt P21709). The experiment in a line: cross-linking.

No constants are given. Whether binding was seen depends on the method and setting. Binding seen in cells or lysates may run through a third protein. Some entries that bind do so weakly or less than the wild type. Tags and fused reporters may be left off the sequences shown.

B1: EphA1-P460L (Alzheimer's disease-associated P460L variant of EphA1), Myc-Flag-tagged (receptor, UniProt P21709 26-976)
chain: KEVTLMDTSKAQGELGWLLDPPKDGWSEQQQILNGTPLYMYQDCPMQGRRDTDHWLRSNWIYRGEEASRVHVELQFTVRDCKSFPGGAGPLGCKETFNLLYMESDQDVGIQLRRPLFQKVTTVAADQSFTIRDLVSGSVKLNVERCSLGRLTRRGLYLAFHNPGACVALVSVRVFYQRCPETLNGLAQFPDTLPGPAGLVEVAGTCLPHARASPRPSGAPRMHCSPDGEWLVPVGRCHCEPGYEEGGSGEACVACPSGSYRMDMDTPHCLTCPQQSTAESEGATICTCESGHYRAPGEGPQVACTGPPSAPRNLSFSASGTQLSLRWEPPADTGGRQDVRYSVRCSQCQGTAQDGGPCQPCGVGVHFSPGARGLTTPAVHVNGLEPYANYTFNVEAQNGVSGLGSSGHASTSVSISMGHAESLSGLSLRLVKKELRQLELTWAGSRPRSPGANLTYELHVLNQDEERYQMVLEPRVLLTELQPDTTYIVRVRMLTPLGPGPFSPDHEFRTSPPVSRGLTGGEIVAVIFGLLLGAALLLGILVFRSRRAQRQRQQRQRDRATDVDREDKLWLKPYVDLQAYEDPAQGALDFTRELDPAWLMVDTVIGEGEFGEVYRGTLRLPSQDCKTVAIKTLKDTSPGGQWWNFLREATIMGQFSHPHILHLEGVVTKRKPIMIITEFMENGALDAFLREREDQLVPGQLVAMLQGIASGMNYLSNHNYVHRDLAARNILVNQNLCCKVSDFGLTRLLDDFDGTYETQGGKIPIRWTAPEAIAHRIFTTASDVWSFGIVMWEVLSFGDKPYGEMSNQEVMKSIEDGYRLPPPVDCPAPLYELMKNCWAYDRARRPHFQKLQAHLEQLLANPHSLRTIANFDPRMTLRLPSLSGSDGIPYRTVSEWLESIRMKRYILHFHSAGLDTMECVLELTAEDLTQMGITLPGHQKRILCSIQGFKD
Consider B1, for which the binding result is “binds”.
